Assay results from paper PMC6723090.
These are yes or no findings as the source states them, for the method shown. Binding seen in cells or lysates may run through a third protein. Here binding means that the protein was enriched with, or labelled near, the bait; the list need not be complete.

Molecular target: T1, synthetic CDR1 peptide … with N-terminal Biotin-[TTDS] linker (human)
T1 sequence (peptide, N-terminal Biotin-[TTDS] linker): ASGYTFTNYGLSWVR
Assay: affinity purification with mass spectrometry; biotinylated peptide (80 ug) on streptavidin magnetic beads; 5 mg homogenized pig retina in PBS, 4 °C overnight; three PBS washes; elution at pH 2.0; in-solution trypsin digestion, LC-MS/MS; biotin-labeled beads as control; n = 3; only the target purified

binding: binds
Substance: mitochondrial serine protease HTRA2 of the porcine retina (enzyme)
